Measured values: the supplement of paper PMC12819154, “High-throughput peptide-centric local stability assay extends protein–ligand identification to membrane proteins, tissues and bacteria” (Nature Structural & Molecular Biology, 2025)
Some of the results follow. Small differences around the control level are noise.

The chains behind the UniProt entries cited, without tags or fusion partners. Where a name states a change or a piece, a line headed by the entry shows the natural chain unless it says otherwise.
UniProt Q9H5N1: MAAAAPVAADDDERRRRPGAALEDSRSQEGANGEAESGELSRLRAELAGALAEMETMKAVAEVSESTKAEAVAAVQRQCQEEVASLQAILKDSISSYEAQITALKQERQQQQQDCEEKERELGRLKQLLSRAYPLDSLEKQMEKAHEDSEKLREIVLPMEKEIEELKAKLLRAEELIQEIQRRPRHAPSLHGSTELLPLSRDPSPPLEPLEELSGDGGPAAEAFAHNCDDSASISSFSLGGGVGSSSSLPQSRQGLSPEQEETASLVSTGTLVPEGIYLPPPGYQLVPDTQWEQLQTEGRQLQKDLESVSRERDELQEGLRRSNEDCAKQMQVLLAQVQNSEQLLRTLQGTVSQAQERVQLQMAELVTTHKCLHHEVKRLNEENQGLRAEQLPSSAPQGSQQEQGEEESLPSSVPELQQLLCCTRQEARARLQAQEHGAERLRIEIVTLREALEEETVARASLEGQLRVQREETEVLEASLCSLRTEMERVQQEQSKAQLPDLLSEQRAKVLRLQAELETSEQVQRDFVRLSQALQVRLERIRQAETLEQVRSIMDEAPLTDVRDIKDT
UniProt Q9HD15: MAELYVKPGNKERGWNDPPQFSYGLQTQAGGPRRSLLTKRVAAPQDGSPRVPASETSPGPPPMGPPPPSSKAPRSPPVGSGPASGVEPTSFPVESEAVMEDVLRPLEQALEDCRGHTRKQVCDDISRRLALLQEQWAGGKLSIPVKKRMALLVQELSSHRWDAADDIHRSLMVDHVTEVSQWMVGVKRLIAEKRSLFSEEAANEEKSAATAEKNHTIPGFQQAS
UniProt Q9H7T9: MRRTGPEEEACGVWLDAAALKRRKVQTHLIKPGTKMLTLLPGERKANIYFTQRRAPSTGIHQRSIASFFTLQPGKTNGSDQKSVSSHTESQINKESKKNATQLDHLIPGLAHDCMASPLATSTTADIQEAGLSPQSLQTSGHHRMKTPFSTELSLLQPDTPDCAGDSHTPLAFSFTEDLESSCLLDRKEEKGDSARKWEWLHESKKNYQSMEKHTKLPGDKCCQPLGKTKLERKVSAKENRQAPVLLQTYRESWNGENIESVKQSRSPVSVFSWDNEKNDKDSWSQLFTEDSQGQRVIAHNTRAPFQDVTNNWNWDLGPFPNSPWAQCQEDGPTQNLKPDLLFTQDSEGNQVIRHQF
UniProt Q9HCL3: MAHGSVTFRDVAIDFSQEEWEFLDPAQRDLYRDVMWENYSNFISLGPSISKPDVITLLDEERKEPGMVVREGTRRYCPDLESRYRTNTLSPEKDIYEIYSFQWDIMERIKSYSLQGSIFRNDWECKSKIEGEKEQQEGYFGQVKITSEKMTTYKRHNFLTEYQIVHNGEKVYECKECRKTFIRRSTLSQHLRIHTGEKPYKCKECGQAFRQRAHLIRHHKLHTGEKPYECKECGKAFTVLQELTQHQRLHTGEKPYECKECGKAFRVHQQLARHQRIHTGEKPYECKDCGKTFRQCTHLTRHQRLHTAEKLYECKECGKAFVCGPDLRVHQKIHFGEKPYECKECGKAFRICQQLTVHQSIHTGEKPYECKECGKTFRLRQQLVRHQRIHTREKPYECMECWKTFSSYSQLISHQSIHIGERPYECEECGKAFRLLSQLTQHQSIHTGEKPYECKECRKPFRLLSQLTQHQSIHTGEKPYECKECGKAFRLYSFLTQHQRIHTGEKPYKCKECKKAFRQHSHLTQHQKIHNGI
UniProt Q9H939: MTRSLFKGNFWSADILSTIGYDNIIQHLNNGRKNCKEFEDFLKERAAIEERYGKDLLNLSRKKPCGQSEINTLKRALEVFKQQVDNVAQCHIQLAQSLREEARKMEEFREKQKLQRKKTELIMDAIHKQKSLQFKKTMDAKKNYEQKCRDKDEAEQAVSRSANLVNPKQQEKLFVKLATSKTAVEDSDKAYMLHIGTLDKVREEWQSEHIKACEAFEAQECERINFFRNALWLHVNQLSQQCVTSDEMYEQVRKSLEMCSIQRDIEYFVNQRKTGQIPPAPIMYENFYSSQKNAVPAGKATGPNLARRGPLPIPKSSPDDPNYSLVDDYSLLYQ
UniProt Q9H773: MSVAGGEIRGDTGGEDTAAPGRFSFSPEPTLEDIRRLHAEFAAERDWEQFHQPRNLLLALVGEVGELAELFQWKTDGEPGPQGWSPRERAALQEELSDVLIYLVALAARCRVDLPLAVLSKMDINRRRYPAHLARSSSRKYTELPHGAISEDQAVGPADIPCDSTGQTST
UniProt Q9HA65: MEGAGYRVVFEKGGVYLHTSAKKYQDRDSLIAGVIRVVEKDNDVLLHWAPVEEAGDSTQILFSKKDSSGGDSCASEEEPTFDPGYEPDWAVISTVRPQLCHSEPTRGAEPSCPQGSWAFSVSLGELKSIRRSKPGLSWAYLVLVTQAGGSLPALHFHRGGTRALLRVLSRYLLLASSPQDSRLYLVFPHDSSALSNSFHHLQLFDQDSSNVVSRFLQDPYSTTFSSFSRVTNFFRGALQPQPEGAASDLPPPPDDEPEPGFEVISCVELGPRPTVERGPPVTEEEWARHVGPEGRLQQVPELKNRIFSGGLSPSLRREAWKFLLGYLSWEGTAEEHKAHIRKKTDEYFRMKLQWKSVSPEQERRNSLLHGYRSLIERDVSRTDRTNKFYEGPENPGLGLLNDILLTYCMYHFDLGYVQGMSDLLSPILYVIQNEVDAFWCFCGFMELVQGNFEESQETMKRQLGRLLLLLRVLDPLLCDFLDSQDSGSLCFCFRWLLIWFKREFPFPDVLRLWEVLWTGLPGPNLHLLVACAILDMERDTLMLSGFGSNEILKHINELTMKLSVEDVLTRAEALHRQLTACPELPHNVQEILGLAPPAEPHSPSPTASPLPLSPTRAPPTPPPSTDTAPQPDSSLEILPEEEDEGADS
UniProt Q9H930: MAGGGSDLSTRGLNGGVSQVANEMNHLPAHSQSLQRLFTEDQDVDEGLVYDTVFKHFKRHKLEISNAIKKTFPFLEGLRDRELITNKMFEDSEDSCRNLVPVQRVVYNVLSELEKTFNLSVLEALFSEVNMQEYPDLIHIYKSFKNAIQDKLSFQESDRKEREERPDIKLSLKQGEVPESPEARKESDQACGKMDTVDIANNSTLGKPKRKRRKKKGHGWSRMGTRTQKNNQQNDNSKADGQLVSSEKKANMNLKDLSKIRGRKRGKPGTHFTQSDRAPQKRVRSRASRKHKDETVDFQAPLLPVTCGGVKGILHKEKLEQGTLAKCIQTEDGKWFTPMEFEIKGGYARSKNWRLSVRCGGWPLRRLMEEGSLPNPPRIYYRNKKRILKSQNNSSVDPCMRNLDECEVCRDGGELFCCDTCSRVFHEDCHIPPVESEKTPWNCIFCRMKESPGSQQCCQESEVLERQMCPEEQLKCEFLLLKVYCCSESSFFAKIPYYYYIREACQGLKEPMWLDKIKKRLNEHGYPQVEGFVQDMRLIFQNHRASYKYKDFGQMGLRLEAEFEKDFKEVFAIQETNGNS
UniProt Q9HAU4, whole entry: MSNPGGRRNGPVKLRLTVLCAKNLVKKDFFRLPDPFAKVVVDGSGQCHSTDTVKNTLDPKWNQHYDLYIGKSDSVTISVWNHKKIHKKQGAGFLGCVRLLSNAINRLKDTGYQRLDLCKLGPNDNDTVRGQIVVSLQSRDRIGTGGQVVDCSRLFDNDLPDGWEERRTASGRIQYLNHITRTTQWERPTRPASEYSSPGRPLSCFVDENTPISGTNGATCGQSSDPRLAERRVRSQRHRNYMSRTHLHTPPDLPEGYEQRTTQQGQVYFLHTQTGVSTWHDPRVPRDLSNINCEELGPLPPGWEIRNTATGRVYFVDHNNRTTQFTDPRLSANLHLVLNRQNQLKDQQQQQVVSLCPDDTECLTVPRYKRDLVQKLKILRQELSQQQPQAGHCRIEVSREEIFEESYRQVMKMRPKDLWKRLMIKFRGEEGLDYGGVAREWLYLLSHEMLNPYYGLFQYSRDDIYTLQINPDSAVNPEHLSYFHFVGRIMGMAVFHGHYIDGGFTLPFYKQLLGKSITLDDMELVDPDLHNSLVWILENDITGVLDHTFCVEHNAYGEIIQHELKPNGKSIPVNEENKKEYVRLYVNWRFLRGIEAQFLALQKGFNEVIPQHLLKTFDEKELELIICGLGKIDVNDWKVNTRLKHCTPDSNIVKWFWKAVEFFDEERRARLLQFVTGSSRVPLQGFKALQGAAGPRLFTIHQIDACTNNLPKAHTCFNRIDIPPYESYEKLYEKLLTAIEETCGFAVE
UniProt Q9HD34: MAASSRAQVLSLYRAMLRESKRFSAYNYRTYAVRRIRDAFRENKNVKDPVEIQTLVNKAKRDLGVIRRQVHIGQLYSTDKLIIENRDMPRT
UniProt Q9H9T3: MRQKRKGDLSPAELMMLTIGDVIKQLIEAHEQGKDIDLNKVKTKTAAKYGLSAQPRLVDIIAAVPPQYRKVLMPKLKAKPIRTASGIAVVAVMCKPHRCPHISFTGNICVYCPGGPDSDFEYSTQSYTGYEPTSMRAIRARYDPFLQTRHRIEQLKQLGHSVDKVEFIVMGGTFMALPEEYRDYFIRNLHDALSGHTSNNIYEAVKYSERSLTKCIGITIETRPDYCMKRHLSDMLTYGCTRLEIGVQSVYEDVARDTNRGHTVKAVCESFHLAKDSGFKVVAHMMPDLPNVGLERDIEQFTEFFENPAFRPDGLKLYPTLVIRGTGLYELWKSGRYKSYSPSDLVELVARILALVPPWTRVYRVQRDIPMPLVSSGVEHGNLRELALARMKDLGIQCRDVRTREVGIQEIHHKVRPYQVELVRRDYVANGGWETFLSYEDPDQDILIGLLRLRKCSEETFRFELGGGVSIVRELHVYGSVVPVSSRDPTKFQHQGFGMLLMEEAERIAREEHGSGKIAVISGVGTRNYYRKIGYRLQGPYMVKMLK
UniProt Q9NQ34: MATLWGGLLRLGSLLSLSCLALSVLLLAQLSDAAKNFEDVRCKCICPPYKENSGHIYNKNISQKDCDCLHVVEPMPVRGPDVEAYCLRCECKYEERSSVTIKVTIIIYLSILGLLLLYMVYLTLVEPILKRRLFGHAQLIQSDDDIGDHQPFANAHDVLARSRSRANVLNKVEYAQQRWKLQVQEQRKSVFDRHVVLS
UniProt Q9NPF4: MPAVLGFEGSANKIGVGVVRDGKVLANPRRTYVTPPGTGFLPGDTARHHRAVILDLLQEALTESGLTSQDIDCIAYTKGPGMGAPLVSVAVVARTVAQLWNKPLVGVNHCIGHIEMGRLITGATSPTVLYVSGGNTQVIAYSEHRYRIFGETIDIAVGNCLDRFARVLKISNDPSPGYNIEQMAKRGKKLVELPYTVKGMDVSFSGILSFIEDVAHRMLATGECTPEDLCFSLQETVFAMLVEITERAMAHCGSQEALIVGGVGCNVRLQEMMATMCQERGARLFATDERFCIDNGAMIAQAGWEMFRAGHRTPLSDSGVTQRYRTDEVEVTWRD
UniProt Q9H871: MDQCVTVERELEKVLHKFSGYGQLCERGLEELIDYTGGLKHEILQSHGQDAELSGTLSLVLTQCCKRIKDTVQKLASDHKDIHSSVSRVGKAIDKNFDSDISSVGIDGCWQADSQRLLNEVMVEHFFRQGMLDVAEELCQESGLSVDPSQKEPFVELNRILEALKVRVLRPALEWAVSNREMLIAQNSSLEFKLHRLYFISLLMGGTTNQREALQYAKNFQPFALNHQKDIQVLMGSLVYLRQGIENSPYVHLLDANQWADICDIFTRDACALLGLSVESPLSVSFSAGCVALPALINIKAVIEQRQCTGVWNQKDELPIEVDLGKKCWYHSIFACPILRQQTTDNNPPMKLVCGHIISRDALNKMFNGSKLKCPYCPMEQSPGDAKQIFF
UniProt Q9H993: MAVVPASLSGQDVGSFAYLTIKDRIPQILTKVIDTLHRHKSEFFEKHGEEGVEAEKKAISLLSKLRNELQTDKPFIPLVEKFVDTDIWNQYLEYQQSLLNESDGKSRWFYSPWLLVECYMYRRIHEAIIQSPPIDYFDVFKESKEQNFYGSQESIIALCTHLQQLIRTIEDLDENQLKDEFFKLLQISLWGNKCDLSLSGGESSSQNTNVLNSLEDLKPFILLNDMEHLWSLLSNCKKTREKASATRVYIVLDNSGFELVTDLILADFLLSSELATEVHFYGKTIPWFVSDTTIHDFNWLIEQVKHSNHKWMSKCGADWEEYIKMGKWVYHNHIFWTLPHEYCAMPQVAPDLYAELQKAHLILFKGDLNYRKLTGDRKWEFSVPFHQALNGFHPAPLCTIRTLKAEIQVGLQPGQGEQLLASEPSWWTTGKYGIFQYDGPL
UniProt Q9HCU5: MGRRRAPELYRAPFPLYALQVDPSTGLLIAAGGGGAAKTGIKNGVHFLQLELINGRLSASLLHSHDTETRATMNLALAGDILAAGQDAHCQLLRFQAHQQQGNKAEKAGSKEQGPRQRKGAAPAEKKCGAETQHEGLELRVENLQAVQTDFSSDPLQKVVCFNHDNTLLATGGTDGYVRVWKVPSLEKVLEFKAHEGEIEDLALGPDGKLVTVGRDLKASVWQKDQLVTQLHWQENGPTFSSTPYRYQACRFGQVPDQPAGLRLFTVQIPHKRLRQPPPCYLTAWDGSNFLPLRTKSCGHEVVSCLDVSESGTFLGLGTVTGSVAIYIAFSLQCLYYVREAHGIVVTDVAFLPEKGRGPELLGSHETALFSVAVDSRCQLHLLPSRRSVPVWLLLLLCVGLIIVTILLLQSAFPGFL

Each target was assayed with CN[C@@H]1C[C@H]2O[C@@](C)([C@@H]1OC)n1c3ccccc3c3c4c(c5c6ccccc6n2c5c31)C(=O)NC4 [staurosporine] (assay: log2 fold change of tryptic peptide abundance, ligand vs vehicle (limited proteolysis) (log2 ratio); higher = more trypsin-susceptible (destabilized)). Details: ligand concentration: 20 uM; sample: K562 cleared lysate; digestion: 4 min, 22 C (HT-PELSA RT4min, Orbitrap Astral).
For “RSAD1 (peptide sequence: LAEFGAAGVNR, peptide start residue: 142) (UniProt Q9HA92)”, the log2 fold change was -0.531. “SMYD3 (peptide sequence: AVTPLRPGELLFR, peptide start residue: 20) (UniProt Q9H7B4)” showed a log2 fold change of 0.258. Work on “RABEP2 (peptide sequence: AYPLDSLEK, peptide start residue: 132) (UniProt Q9H5N1)” yielded a log2 fold change of -0.132. Work on “SRA1 (peptide sequence: SLMVDHVTEVSQWMVGVKR, peptide start residue: 170) (UniProt Q9HD15)” yielded a log2 fold change of 0.352. Target “AUNIP (peptide sequence: KANIYFTQR, peptide start residue: 45) (UniProt Q9H7T9)” has a log2 fold change of 0.463. “YTHDC2 (peptide sequence: GNVFAVEAENR, peptide start residue: 151) (UniProt Q9H6S0)” was tested, and the log2 fold change was -0.175. Work on “UniProt Q9HCL3 (peptide sequence: IHTGEKPYECK, peptide start residue: 411)” yielded a log2 fold change of -0.00813. For “CASS4 (peptide sequence: NCEKEETVQLTPNAEFKCEK, peptide start residue: 591) (UniProt Q9NQ75)”, the log2 fold change was 0.758. “JADE2 (peptide sequence: KPSEVFR, peptide start residue: 43) (UniProt Q9NQC1)” gave a log2 fold change of 0.126. “PSTPIP2 (peptide sequence: DKDEAEQAVSR, peptide start residue: 150) (UniProt Q9H939)” was tested, and the log2 fold change was 0.373. “ESF1 (peptide sequence: LAVCNMDWDRLK, peptide start residue: 350) (UniProt Q9H501)” showed a log2 fold change of 0.778. “BRF2 (peptide sequence: MAEQLAWLR, peptide start residue: 276) (UniProt Q9HAW0)” was tested, and the log2 fold change was -0.283. “UniProt Q9NQ39 (peptide sequence: NVPNLHVMK, peptide start residue: 39)” gave a log2 fold change of 0.277. For “UniProt Q9H773 (peptide sequence: LHAEFAAER, peptide start residue: 37)”, the log2 fold change was -0.717. For “TBC1D17 (peptide sequence: MEGAGYRVVFEKGGVYLHTSAK, peptide start residue: 1) (UniProt Q9HA65)”, the log2 fold change was 0.152. “SP140L (peptide sequence: QGEVPESPEAR, peptide start residue: 174) (UniProt Q9H930)” showed a log2 fold change of 0.3. Target “UniProt Q9HAU4 (peptide sequence: THLHTPPDLPEGYEQR, peptide start residue: 245)” has a log2 fold change of -0.272. In the case of “LYRM4 (peptide sequence: QVHIGQLYSTDKLIIENR, peptide start residue: 69) (UniProt Q9HD34)”, the log2 fold change is reported as -0.441. With “ELP3 (peptide sequence: RKGDLSPAELMMLTIGDVIK, peptide start residue: 5) (UniProt Q9H9T3)” the log2 fold change was -0.429. “TMEM9B (peptide sequence: LQVQEQR, peptide start residue: 166) (UniProt Q9NQ34)” showed a log2 fold change of -0.0795. In the case of “OSGEP (peptide sequence: TPLSDSGVTQR, peptide start residue: 313) (UniProt Q9NPF4)”, the log2 fold change is reported as 0.287. “PALMD (peptide sequence: EINEEKEDDEQNRK, peptide start residue: 158) (UniProt Q9NP74)” was tested, and the log2 fold change was -0.683. “UniProt Q9H7Z3 (peptide sequence: KGDSCLGINPK, peptide start residue: 190)” showed a log2 fold change of 0.42. “PHAX (peptide sequence: LGNRPEMNYK, peptide start residue: 207) (UniProt Q9H814)” showed a log2 fold change of 0.414. Target “FANCE (peptide sequence: LLEALCR, peptide start residue: 63) (UniProt Q9HB96)” has a log2 fold change of 0.317. In the case of “DHX35 (peptide sequence: TLYTDIAIGLLKK, peptide start residue: 182) (UniProt Q9H5Z1)”, the log2 fold change is reported as 0.561. “UniProt Q9H871 (peptide sequence: KCWYHSIFACPILR, peptide start residue: 327)” was tested, and the log2 fold change was -0.473. Work on “UniProt Q9H993 (peptide sequence: LRNELQTDKPFIPLVEK, peptide start residue: 65)” yielded a log2 fold change of -0.0302. In the case of “PREB (peptide sequence: FGQVPDQPAGLR, peptide start residue: 252) (UniProt Q9HCU5)”, the log2 fold change is reported as -0.106.
